From PubChem BioAssay AID1347075 (National Center for Advancing Translational Sciences (NCATS), 2019)
About 5,500 (1.4%) of roughly 400,000 compounds were called active. Inconclusive means that the source gave no clear call. Such entries were picked first, then a sample of the others. The call rests on the fitted dose curve; in most records, active means well fitted cell-killing curve with a large enough effect; inconclusive means small, poorly fitted or top-dose-only effect, or effect the other way; inactive means flat fitted curve, though single readings scatter. Where the call is inconclusive, the potency comes from a doubtful curve fit.

Experiment: qHTS assay for MDR1-selective chemotherapeutics: Primary screen using the parental adenocarcinoma cell KB-3-1; further: nearly all actives have a fitted effect of over 60% in size
Conditions: KB-3-1 viability, CellTiter-Glo ATP luminescence, 72 h; activity change, negative = cytotoxic: at 46.1 µM (top of the series)
Method in brief: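 Parental KB-3-1 adenocarcinoma cells in phenol-red-free DMEM with 10% FBS were pin-treated with compounds at several concentrations, incubated 72 h at 37 °C, and viability read by CellTiter-Glo luminescence; concentration-effect curves were fitted after normalization.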
On the % scale 0 is the no-effect control and ±100 the full control effect; potency means the concentration at half of the fitted maximal effect.

| Compound | activity change, negative = cytotoxic | Potency |
| --- | --- | --- |
| CCOc1ccccc1-n1c(C)nc2cc(C(=O)O)ccc21 | inconclusive: -57.9% | – |
| CCC(=O)Nc1cccc(C(=O)/C=C/c2ccc(F)cc2)c1 | – | inconclusive: 6.51 µM [cytotoxic, partial curve] |
| O=C(Nc1nnc(-c2ccccc2)s1)c1ccccc1F | inactive: -14.5% | – |
| COC(=O)CS(=O)(=O)c1cc([N+](=O)[O-])ccc1NC(=O)OC | inactive: -14.9% | – |
| CCOc1ccccc1NC(=O)Cc1coc2c(C)c(C)ccc12 | inactive: 1.91% | – |
| CC(C(=O)NCc1ccccc1)N1C(=O)c2ccccc2C1=O (stereo not given) | inconclusive: 21.8% | – |
| O=C(Oc1ccccc1C(=O)Nc1ccccc1)c1ccccc1Br | – | active: 11.6 µM |
| COC(=O)c1cc(C(=O)OCC(=O)c2ccc3c(c2)NC(=O)CO3)cc([N+](=O)[O-])c1 | – | inconclusive: 0.366 µM [rising, full curve] |
| COc1ccc(-c2cc(C(=O)N3CCN(c4ccccc4)CC3)no2)cc1OC | inactive: -3.38% | – |
| Cc1cccc(N2CCN(C(=O)c3cc4c(=O)n(C)c5ccccc5c4n3C)CC2C)c1 (stereo not given) | – | inconclusive: 32.6 µM [cytotoxic, single point] |
| CC1(C)Cc2c(C#N)c(NCCc3ccccc3)nc(-c3ccco3)c2CO1 | – | inconclusive: 32.6 µM [cytotoxic, single point] |
| O=C(Cc1ccc(Cl)cc1)Nc1ccccc1Sc1ccccc1 | – | inconclusive: 18.4 µM [cytotoxic, partial curve, poor fit] |
| CCCCCOc1ccc(NC(=O)c2cc(SC)ccc2Cl)cc1 | – | inconclusive: 8.2 µM [cytotoxic, partial curve, poor fit] |
| O=c1oc(CCO)cc2ccc(Br)cc12 | inactive: 0% | – |
| CC(C)C1C(=O)N(Cc2cn(CCC3OCCO3)nn2)CCS(=O)(=O)N1Cc1ccc(-c2ccncc2)cc1 (stereo not given) | – | inconclusive: 25.9 µM [cytotoxic, partial curve, poor fit] |
| CCN1C(=O)[C@H]2[C@@H](c3ccc(-c4cccc(Cl)c4)cc3)N3CCCC[C@@]3(C(=O)OC)[C@H]2C1=O | – | inconclusive: 32.6 µM [cytotoxic, single point] |
| C#Cc1cc(N2CCN(C(=O)c3ccoc3)CC2)n2nc(-c3cccc(Cl)c3)cc2n1 | – | inconclusive: 25.9 µM [cytotoxic, single point] |
| C=CCN1C(=O)S/C(=C\c2ccc3c(c2)n(C)c(=O)n3C)C1=O | inactive: 12.6% | – |
| CCCCn1ccnc1C(=O)c1cccc(S(=O)(=O)N2CC(C)CC(C)C2)c1 (stereo not given) | – | inconclusive: 13 µM [cytotoxic, partial curve, poor fit] |
| Clc1nccnc1N/N=C/c1ccc(Br)cc1 | – | inconclusive: 20.6 µM [cytotoxic, single point] |

Arranged by formula weight (falling): some entries from above.

| Compound | activity change, negative = cytotoxic | Potency |
| --- | --- | --- |
| CC(C)C1C(=O)N(Cc2cn(CCC3OCCO3)nn2)CCS(=O)(=O)N1Cc1ccc(-c2ccncc2)cc1 (stereo not given) | – | inconclusive: 25.9 µM [cytotoxic, partial curve, poor fit] |
| COC(=O)CS(=O)(=O)c1cc([N+](=O)[O-])ccc1NC(=O)OC | inactive: -14.9% | – |
| Clc1nccnc1N/N=C/c1ccc(Br)cc1 | – | inconclusive: 20.6 µM [cytotoxic, single point] |
